# Assay results as given in patent US8981084B2, “Oxadiazole HDAC inhibitors” (Tempero Pharmaceuticals, Inc., priority 2011, dated 2015).
# The chains behind the UniProt entries cited, without tags or fusion partners. Residues count along the entry.
# UniProt Q9UKV0, 1-1066 isoform Q9UKV0-5: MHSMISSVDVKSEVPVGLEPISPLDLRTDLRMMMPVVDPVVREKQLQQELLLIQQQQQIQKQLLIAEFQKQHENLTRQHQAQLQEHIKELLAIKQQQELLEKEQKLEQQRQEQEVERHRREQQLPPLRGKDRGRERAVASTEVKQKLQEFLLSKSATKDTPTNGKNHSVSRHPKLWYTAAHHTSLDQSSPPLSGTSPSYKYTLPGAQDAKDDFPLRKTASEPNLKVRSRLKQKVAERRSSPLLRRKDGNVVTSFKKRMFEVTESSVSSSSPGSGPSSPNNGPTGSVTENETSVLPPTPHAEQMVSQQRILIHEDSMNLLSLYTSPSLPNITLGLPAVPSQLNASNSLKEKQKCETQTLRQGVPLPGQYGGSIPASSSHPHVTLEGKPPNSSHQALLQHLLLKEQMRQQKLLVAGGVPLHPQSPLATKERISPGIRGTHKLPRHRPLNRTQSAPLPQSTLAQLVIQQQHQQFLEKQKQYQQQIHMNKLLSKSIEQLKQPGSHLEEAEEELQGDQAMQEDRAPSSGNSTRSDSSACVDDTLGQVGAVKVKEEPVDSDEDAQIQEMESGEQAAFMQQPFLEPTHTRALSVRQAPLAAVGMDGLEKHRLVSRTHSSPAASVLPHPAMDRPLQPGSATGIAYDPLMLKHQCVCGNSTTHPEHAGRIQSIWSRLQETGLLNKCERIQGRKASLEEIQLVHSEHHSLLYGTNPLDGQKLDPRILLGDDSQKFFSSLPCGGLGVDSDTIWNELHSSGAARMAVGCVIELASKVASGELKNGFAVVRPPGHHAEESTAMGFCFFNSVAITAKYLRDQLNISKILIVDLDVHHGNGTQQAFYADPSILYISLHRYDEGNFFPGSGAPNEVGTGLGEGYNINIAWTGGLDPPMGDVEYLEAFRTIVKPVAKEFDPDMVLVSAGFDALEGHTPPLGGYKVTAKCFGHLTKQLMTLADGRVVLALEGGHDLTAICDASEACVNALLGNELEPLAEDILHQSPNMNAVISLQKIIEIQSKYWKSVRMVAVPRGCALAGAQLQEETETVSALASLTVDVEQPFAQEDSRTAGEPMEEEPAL
# Some entries share one result that the patent states for a list of compounds.
# Target: T1, Recombinant HDAC9 isoform 4 (Homo sapiens, UniProt Q9UKV0)
# T1 construct: purchased BPS Bioscience
# Assay: Histone Deacetylase 9 (HDAC9) inhibition assay, fluorogenic substrate
# Assay type: biochemical
# Conditions: mean of a minimum of 2 experiments; 11 point 3x dilution series from 100 uM; Class IIa HDAC-specific fluorogenic substrate 4.5 uM
# Text: Histone Deacetylase 9 (HDAC9) Inhibition Assay:
# Novel histone deacetylase 9 (HDAC9) inhibitors were characterized in an in vitro biochemical functional assay. The assay measures the increased fluorescent signal due to deacetylation, by HDAC9, of a fluorogenic substrate. The commercial available substrate is Class IIa HDAC-specific and contains an acetylated lysine residue and would releases the fluorescent signal upon trypsin cleavage after deacetylation.
# Specifically, test compounds diluted to various concentrations in 100% DMSO are first dispensed into 384-well assay plates. Recombinant HDAC9 isoform 4 (purchased from BPS Bioscience) in complete assay buffer (50 mM Tris-HCl, pH 8.0, 137 mM NaCl, 2.7 mM KCl, 1 mM MgCl2, 0.05% BSA & 0.005% Tween 20) were then added to each well (5 uL/well) using Multidrop Combi (Thermo Scientific), followed by 5 uL/well substrate (purchased from BPS Bioscience, 4.5 uM final). After 45 minutes incubation at room temperature, 10 uL 2× developer solution (assay buffer with 40 uM Trypsin and 20 uM Trichostatin A) was added. The plates were then incubated 1 hour at room temperature before reading in fluorescent intensity mode at 450 nm in an Envision (Perkin Elmer) plate reader. Percent Inhibition of HDAC9 activity by compounds in each test wells was calculated by normalizing to fluorescent signal in control wells containing DMSO only. The pIC50s value of test compounds were calculated from non-linear curve fitting, using ActivityBase5 data analysis tool (IDBS), from 11 point 3× dilution series starting from 100 uM final compound concentration.
# For dose response experiments, normalized data were fit by ABASE/XC50 using the equation y=a+(b−a)/(1+(10^×/10^c)^d), where a is the minimum % activity, b is the maximum % activity, c is the pIC50, d is the Hill slope.
# The pIC50s are averaged to determine a mean value, for a minimum of 2 experiments. […] For instance, the compounds of Examples 1, 38, 61 and 79 inhibited HDAC9 in the above method with a mean pIC50 of >6.
row,SMILES,"mean pIC50, inhibition of HDAC9"
1,"N#Cc1ccc(N2CCN(C(=O)c3cccc(-c4noc(C(F)(F)F)n4)c3)CC2)c(F)c1 [Example 76, 3-Fluoro-4-(4-(3-(5-(trifluoromethyl)-1,2,4-oxadiazol-3-yl)benzoyl)piperazin-1-yl)benzonitrile]",greater than 4.0
2,"O=C(c1cccc(-c2noc(C(F)(F)F)n2)c1)N1CCN(Cc2ccccc2)CC1 [Example 15, (4-benzylpiperazin-1-yl)(3-(5-(trifluoromethyl)-1,2,4-oxadiazol-3-yl)phenyl)methanone]",greater than 4.0
3,"N#Cc1ccc(C2CN(C(=O)c3cccc(-c4noc(C(F)(F)F)n4)c3)C2)nc1 [Example 49, 6-(1-(3-(5-(Trifluoromethyl)-1,2,4-oxadiazol-3-yl)benzoyl)azetidin-3-yl)nicotinonitrile]",greater than 4.0
4,"O=C(c1cccc(-c2noc(C(F)(F)F)n2)c1)N1CCN(c2ncccc2C(F)(F)F)CC1 [Example 26, (3-(5-(trifluoromethyl)-1,2,4-oxadiazol-3-yl)phenyl)(4-(3-(trifluoromethyl)pyridin-2-yl)piperazin-1-yl)methanone]",greater than 4.0
5,"N#Cc1ccc(N2CCN(C(=O)c3cccc(-c4noc(C(F)(F)F)n4)c3)CC2C(=O)O)nc1 (stereo not shown) [Example 58, 1-(5-Cyanopyridin-2-yl)-4-(3-(5-(trifluoromethyl)-1,2,4-oxadiazol-3-yl)benzoyl)piperazine-2-carboxylic acid]",greater than 4.0
6,"O=C(c1cccc(-c2noc(C(F)(F)F)n2)c1)N1CCN(Cc2csc(-c3ccc(F)cc3)n2)CC1 [Example 82, (4-((2-(4-Fluorophenyl)thiazol-4-yl)methyl)piperazin-1-yl)(3-(5-(trifluoromethyl)-1,2,4-oxadiazol-3-yl)phenyl)methanone]",greater than 4.0
7,"CC1CN(Cc2ccc(C#N)cn2)CCN1C(=O)CCCc1noc(C(F)(F)F)n1 (stereo not shown) [Example 47, 6((3-Methyl-4-(4-(5-(trifluoromethyl)-1,2,4-oxadiazol-3-yl)butanoyl)piperazin-1-yl)methyl)nicotinonitrile]",greater than 4.0
8,"O=C(c1cccc(-c2noc(C(F)(F)F)n2)c1)N1C[C@@H]2C[C@H]1CN2c1ccccn1 [Example 85, ((1S,4S)-5-(Pyridin-2-yl)-2,5-diazabicyclo[2.2.1]heptan-2-yl)(3-(5-(trifluoromethyl)-1,2,4-oxadiazol-3-yl)phenyl)methanone]",greater than 4.0
9,"CC1CN(C(=O)c2cccc(-c3noc(C(F)(F)F)n3)c2)CC(C)N1c1ccc(C#N)cn1 (stereo not shown) [Example 43, 6-(2,6-Dimethyl-4-(3-(5-(trifluoromethyl)-1,2,4-oxadiazol-3-yl)benzoyl)piperazin-1-yl)nicotinonitrile]",greater than 4.0
10,"Cc1csc(N2CCN(C(=O)c3cccc(-c4noc(C(F)(F)F)n4)c3)CC2)n1 [Example 80, (4-(4-Methylthiazol-2-yl)piperazin-1-yl)(3-(5-(trifluoromethyl)-1,2,4-oxadiazol-3-yl)phenyl)methanone]",greater than 4.0
11,"O=C(c1cccc(-c2noc(C(F)(F)F)n2)c1)N1CCN(c2cccnc2)CC1 [Example 75, (4-(Pyridin-3-yl)piperazin-1-yl)(3-(5-(trifluoromethyl)-1,2,4-oxadiazol-3-yl)phenyl)methanone]",greater than 4.0
12,"COc1ccccc1CN1CCN(C(=O)c2cccc(-c3noc(C(F)(F)F)n3)c2)CC1 [Example 32, (4-(2-methoxybenzyl)piperazin-1-yl)(3-(5-(trifluoromethyl)-1,2,4-oxadiazol-3-yl)phenyl)methanone]",greater than 4.0
13,"O=C(Nc1ccc(Cn2cncn2)cc1)c1cccc(-c2noc(C(F)(F)F)n2)c1 [Example 36, N-(4-((1H-1,2,4-Triazol-1-yl)methyl)phenyl)-3-(5-(trifluoromethyl)-1,2,4-oxadiazol-3-yl)benzarnide]",greater than 4.0
14,"O=C(c1cccc(-c2noc(C(F)(F)F)n2)c1)N1CCN(c2ccccc2Cl)CC1 [Example 27, (4-(2-chlorophenyl)piperazin-1-yl)(3-(5-(trifluoromethyl)-1,2,4-oxadiazol-3-yl)phenyl)methanone]",greater than 4.0
15,"O=C(c1cccc(-c2noc(C(F)(F)F)n2)c1)N1CCCC(c2nc(-c3ccc(F)cc3)cs2)C1 (stereo not shown) [Example 64, (3-(4-(4-Fluorophenyl)thiazol-2-yl)piperidin-1-yl)(3-(5-(trifluoromethyl)-1,2,4-oxadiazol-3-yl)phenyl)methanone]",greater than 4.0
16,"CC1CN(c2ccc(C#N)cn2)CCN1C(=O)c1cccc(-c2noc(C(F)(F)F)n2)c1 (stereo not shown) [Example 40, 6-(3-Methyl-4-(3-(5-(trifluoromethyl)-1,2,4-oxadiazol-3-yl)benzoyl)piperazin-1-yl)nicotinonitrile]",greater than 4.0
17,"O=C(c1cccc(-c2noc(C(F)(F)F)n2)c1)N1CCN(C(=O)c2ccc3cc[nH]c3c2)CC1 [Example 20, (4-(1H-indole-6-carbonyl)piperazin-1-yl)(3-(5-(trifluoromethyl)-1,2,4-oxadiazol-3-yl)phenyl)methanone]",greater than 4.0
18,"O=C(c1cccc(-c2noc(C(F)(F)F)n2)c1)N1CCN(CCN2CCOCC2)CC1 [Example 6, (4-(2-morpholinoethyl)piperazin-1-yl)(3-(5-(trifluoromethyl)-1,2,4-oxadiazol-3-yl)phenyl)methanone]",greater than 4.0
19,"O=C(c1cccc(-c2noc(C(F)(F)F)n2)c1)N1CCCC(c2ncc(-c3ccc(F)cc3)o2)C1 (stereo not shown) [Example 68, (3-(5-(4-Fluorophenyl)oxazol-2-yl)piperidin-1-yl)(3-(5-(trifluoromethyl)-1,2,4-oxadiazol-3-yl)phenyl)methanone]",greater than 4.0
20,"COc1ccc(N2CCN(C(=O)c3cccc(-c4noc(C(F)(F)F)n4)c3)CC2)cc1 [Example 33, (4-(4-methoxyphenyl)piperazin-1-yl)(3-(5-(trifluoromethyl)-1,2,4-oxadiazol-3-yl)phenyl)methanone]",greater than 4.0
21,"CN1CCN(C(=O)c2cccc(-c3noc(C(F)(F)F)n3)c2)CC1c1nc(-c2ccccc2)cs1 (stereo not shown) [Example 59, (4-Methyl-3-(4-phenylthiazol-2-yl)piperazin-1-yl)(3-(5-(trifluoromethyl)-1,2,4-oxadiazol-3-yl)phenyl)methanone]",greater than 4.0
22,"N#Cc1ccc(N2CCN(C(=O)c3cccc(-c4noc(C(F)(F)F)n4)c3)C(C(=O)O)C2)nc1 (stereo not shown) [Example 42, 4-(5-Cyanopyridin-2-yl)-1-(3-(5-(trifluoromethyl)-1,2,4-oxadiazol-3-yl)benzoyl)piperazine-2-carboxylic acid]",greater than 4.0
23,"O=C(c1cccc(-c2noc(C(F)(F)F)n2)c1)N1CCN(Cc2ccc3c(c2)OCO3)CC1 [Example 16, (4-(benzo[d][1,3]dioxol-5-ylmethyl)piperazin-1-yl)(3-(5-(trifluoromethyl)-1,2,4-oxadiazol-3-yl)phenyl)methanone]",greater than 4.0
24,"CC1CN(c2ccc(C#N)cn2)CCN1C(=O)C(C)(C)CCc1noc(C(F)(F)F)n1 (stereo not shown) [Example 62, 6-(4-(2,2-Dimethyl-4-(5-(trifluoromethyl)-1,2,4-oxadiazol-3-yl)butanoyl)-3-methylpiperazin-1-yl)nicotinonitrile]",greater than 4.0
25,"CSc1cccc(N2CCN(C(=O)c3cccc(-c4noc(C(F)(F)F)n4)c3)CC2)c1 [Example 29, (4-(3-(methylthio)phenyl)piperazin-1-yl)(3-(5-(trifluoromethyl)-1,2,4-oxadiazol-3-yl)phenyl)methanone]",greater than 4.0
26,"COc1cccc(N2CCN(C(=O)c3cccc(-c4noc(C(F)(F)F)n4)c3)CC2)c1 [Example 69, (4-(3-Methoxyphenyl)piperazin-1-yl)(3-(5-(trifluoromethyl)-1,2,4-oxadiazol-3-yl)phenyl)methanone]",greater than 4.0
27,"O=C(c1cccc(-c2noc(C(F)(F)F)n2)c1)N1CCC(n2c(=O)n(CCCN3CCOCC3)c3ccccc32)CC1 [Example 44, 1-(3-morpholinopropyl)-3-(1-(3-(5-(trifluoromethyl)-1,2,4-oxadiazol-3-yl)benzoyl)piperidin-4-yl)-1H-benzo[d]imidazol-2(3H)-one]",greater than 4.0
28,"N#Cc1ccccc1N1CCN(C(=O)c2cccc(-c3noc(C(F)(F)F)n3)c2)CC1 [Example 8, 2-(4-(3-(5-(trifluoromethyl)-1,2,4-oxadiazol-3-yl)benzoyl)piperazin-1-yl)benzonitrile]",greater than 4.0
